The results in this text go back to patent US20260176701A1 (BRIGHAM AND WOMEN S HOSPITAL, published 2026).

Sequences of proteins named here, by UniProt entry; tags and fusion partners are left off. A change or cut given only in a name is not applied to a line headed by its entry.
UniProt Q9UN81: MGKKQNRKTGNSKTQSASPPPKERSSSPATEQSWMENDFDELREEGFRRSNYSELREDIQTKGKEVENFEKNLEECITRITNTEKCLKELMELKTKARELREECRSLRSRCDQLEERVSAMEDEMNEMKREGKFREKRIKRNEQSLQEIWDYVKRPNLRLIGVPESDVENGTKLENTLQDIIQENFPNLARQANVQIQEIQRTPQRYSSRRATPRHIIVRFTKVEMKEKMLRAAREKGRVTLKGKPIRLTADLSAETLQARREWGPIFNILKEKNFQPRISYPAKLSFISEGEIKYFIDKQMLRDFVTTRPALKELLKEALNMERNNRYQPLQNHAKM

The target in assay [1] is recombinant human ORF1p (LINE-1 open reading frame 1 protein, L1RP) (human) (UniProt Q9UN81). The experiment in a line: SPR, ORF1p immobilized. A general note: Surface plasmon resonance follows binding to a sensor surface in real time, without labels.
For assay [2] the target is unchanged. The experiment in a line: SPR; Simoa with lysine-biotinylated detector.
Assay [3] has the same target. As to the kind of experiment: Simoa sandwich, recombinant ORF1p at 40 pg/mL in diluent buffer, signal/background heat map; capture on the x axis, detector on the y axis.
The target is the same in assay [4]. The experiment in a line: Simoa sandwich calibration curves, panels titled capture/detector; AEB against recombinant ORF1p (axis 0.001-1000 pg/mL, log-log); dotted line = limit of detection.
The target is the same in assay [5]. As to the kind of experiment: large-volume (500 uL) MOSAIC sandwich calibration curve, 34H7 capture / Nb5-5LL detector; average molecules per bead against ORF1p concentration (log-log); dashed line = limit of detection.
Assay [6] shares this target. As to the kind of experiment: ELISA screen of conditioned medium, then modified Simoa with Nb-5 or 4H1 beads and ORF1p.

No constants are given. Whether binding was seen depends on the method and setting. Some entries that bind do so weakly or less than the wild type.

B1: anti-ORF1 Nb dimer 4 Nb5-Nb1 (MT994) (bispecific antibody)
chain: QVQLVESGGDLVQAGGSLRLSCAVSGGTSSNYGMGWFRQAPGKEREFVSSISWSGSRTLYSDSVKGRFTISRDNAKNTVDLQMNSLKPEDTAVYYCTAVREYRDYPQRDNFDYWGQGTQVTVSGGGGSGGGGSGGGGSGGGGSMADVQLVESGGGLVQAGESLRLSCAASGRTLSSLNMAWFRQVPGKERDFVSLISRSGSTDYVHSVRGRFTISRDNAKNTVYLEMNSLKPEDTAVYYCAADDNYNGRYPFRDEYEYWGQGTQVTVSHHHHHH
notes: Heterodimeric tandem nanobody, short linker; also called Nb 5-1; Nb5-1 pMT994
B1: the binding entry in assay [1] is recorded as “binds”.

B2: anti-ORF1 Nb dimer 5 Nb5-Nb2 (MT995) (bispecific antibody)
chain: QVQLVESGGDLVQAGGSLRLSCAVSGGTSSNYGMGWFRQAPGKEREFVSSISWSGSRTLYSDSVKGRFTISRDNAKNTVDLQMNSLKPEDTAVYYCTAVREYRDYPQRDNFDYWGQGTQVTVSGGGGSGGGGSGGGGSGGGGSMADVQLVESGGGLVQAGGSLRLSCAASGRTDDIYTMGWFRQGPGKEREFVAVISWSITRRSSITHYADSVKGRFTISGENAENTVYLQMNTLKPEDTAVYYCAAKTGYSGSMSSYQDYDSWGQGTQVTVSHHHHHH
notes: Heterodimeric tandem nanobody, short linker; also called Nb 5-2; Nb5-2 pMT995
Regarding B2, the binding entry in assay [1] and in assay [2] was “binds” each time.

B3: anti-ORF1 Nb dimer 2 Nb2-Nb2 (MT992) (VHH)
chain: DVQLVESGGGLVQAGGSLRLSCAASGRTDDIYTMGWFRQGPGKEREFVAVISWSITRRSSITHYADSVKGRFTISGENAENTVYLQMNTLKPEDTAVYYCAAKTGYSGSMSSYQDYDSWGQGTQVTVSGGGGSGGGGSGGGGSGGGGSMADVQLVESGGGLVQAGGSLRLSCAASGRTDDIYTMGWFRQGPGKEREFVAVISWSITRRSSITHYADSVKGRFTISGENAENTVYLQMNTLKPEDTAVYYCAAKTGYSGSMSSYQDYDSWGQGTQVTVSHHHHHH
notes: Homodimeric tandem nanobody, short (GGGGS)x4 linker; also called Nb 2-2; Nb2-2 pMT992
On to B3, for which the binding result in assay [1] and in assay [2] was “binds” throughout.

B4: anti-ORF1 Nb trimer Nb5-Nb5-Nb5 (MT996) (bispecific antibody)
chain: QVQLVESGGDLVQAGGSLRLSCAVSGGTSSNYGMGWFRQAPGKEREFVSSISWSGSRTLYSDSVKGRFTISRDNAKNTVDLQMNSLKPEDTAVYYCTAVREYRDYPQRDNFDYWGQGTQVTVSGGGGSGGGGSGGGGSGGGGSMAQVQLVESGGDLVQAGGSLRLSCAVSGGTSSNYGMGWFRQAPGKEREFVSSISWSGSRTLYSDSVKGRFTISRDNAKNTVDLQMNSLKPEDTAVYYCTAVREYRDYPQRDNFDYWGQGTQVTVSGGGGSGGGGSGGGGSGGGGSMAQVQLVESGGDLVQAGGSLRLSCAVSGGTSSNYGMGWFRQAPGKEREFVSSISWSGSRTLYSDSVKGRFTISRDNAKNTVDLQMNSLKPEDTAVYYCTAVREYRDYPQRDNFDYWGQGTQVTVSHHHHHH
notes: Homotrimeric tandem nanobody; also called Nb 5-5-5
Take B4: the binding result in assay [1] was “binds”.

B5: anti-ORF1 Nb dimer 6 Nb5-Nb5 long linker (MT997) (bispecific antibody)
chain: QVQLVESGGDLVQAGGSLRLSCAVSGGTSSNYGMGWFRQAPGKEREFVSSISWSGSRTLYSDSVKGRFTISRDNAKNTVDLQMNSLKPEDTAVYYCTAVREYRDYPQRDNFDYWGQGTQVTVSGGGGSGGGGSGGGGSGGGGSEAAAKEAAAKEAAAKSGGGGSGGGGSGGGGSGGGGSMAQVQLVESGGDLVQAGGSLRLSCAVSGGTSSNYGMGWFRQAPGKEREFVSSISWSGSRTLYSDSVKGRFTISRDNAKNTVDLQMNSLKPEDTAVYYCTAVREYRDYPQRDNFDYWGQGTQVTVSHHHHHH
notes: Homodimeric tandem nanobody, long linker of 56 residues; also called Nb 5-5 long; Nb5-5LL
Turning to B5, the binding result in assay [1], in assay [3], in assay [4] and in assay [5] was “binds” in each case.

B6: anti-ORF1 Nb dimer 3 Nb5-Nb5 (MT993) (bispecific antibody)
chain: QVQLVESGGDLVQAGGSLRLSCAVSGGTSSNYGMGWFRQAPGKEREFVSSISWSGSRTLYSDSVKGRFTISRDNAKNTVDLQMNSLKPEDTAVYYCTAVREYRDYPQRDNFDYWGQGTQVTVSGGGGSGGGGSGGGGSGGGGSMAQVQLVESGGDLVQAGGSLRLSCAVSGGTSSNYGMGWFRQAPGKEREFVSSISWSGSRTLYSDSVKGRFTISRDNAKNTVDLQMNSLKPEDTAVYYCTAVREYRDYPQRDNFDYWGQGTQVTVSHHHHHH
notes: Homodimeric tandem nanobody, short linker; also called Nb 5-5; Nb5-5
For B6, the binding entry in assay [1] and in assay [3] was “binds” in each case.

B7: 55A6 (antibody, V domains shown)
VH: QSLEESGGDLVKPGASLTLTCTASGFSFINNNHICWVRQAPGKGLEWIACIYAGSNGYTYYTNWAKGRFTISKTSSTTVTLQMTSLTAADTATYFCARVPYAGYVNYGYAFFNLWGPGTLVTVSS
VL: AAVVTQTPSPVSAPVGGTVTISCQSSQSVYRTNDLAWYQQKPGQPPKLLIYWASKLAIGVPSRFKGSGSGTQFTLTISGVQCDDAATYYCLGGYDDDGDLNTFGGGTEVVVN
On to B7, for which the binding result in assay [6] and in assay [3] was “binds” each time.
